Measurements reported in PMC3641059.
These are yes or no findings as the source states them, for the method shown.

Chains of the proteins cited; added tags and fusions are not shown.
UniProt P19658: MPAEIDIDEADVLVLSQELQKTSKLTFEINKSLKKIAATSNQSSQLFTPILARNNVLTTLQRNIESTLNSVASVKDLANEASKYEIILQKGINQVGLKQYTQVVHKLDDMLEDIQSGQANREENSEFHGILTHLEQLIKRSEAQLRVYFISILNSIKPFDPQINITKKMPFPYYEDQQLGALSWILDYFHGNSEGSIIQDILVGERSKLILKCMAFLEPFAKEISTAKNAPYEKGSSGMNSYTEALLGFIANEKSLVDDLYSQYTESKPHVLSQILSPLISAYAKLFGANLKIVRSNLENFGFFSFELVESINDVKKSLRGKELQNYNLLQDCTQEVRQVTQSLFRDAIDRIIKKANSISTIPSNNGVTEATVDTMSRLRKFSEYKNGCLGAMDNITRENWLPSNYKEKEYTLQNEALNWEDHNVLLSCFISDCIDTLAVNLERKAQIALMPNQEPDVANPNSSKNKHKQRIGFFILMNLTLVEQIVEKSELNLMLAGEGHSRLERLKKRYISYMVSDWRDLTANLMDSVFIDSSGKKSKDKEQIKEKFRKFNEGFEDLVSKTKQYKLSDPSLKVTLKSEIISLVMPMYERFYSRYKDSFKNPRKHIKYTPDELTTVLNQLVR

Target: Exo70-FRB (S. cerevisiae) (UniProt P19658)
Assay: automated PICT screen (co-translocation, automated live-cell imaging); living S. cerevisiae, anchor Pil1-RFP-FKBP, bait Exo70-FRB, 227 C-terminally GFP-tagged prey strains in 96 well plates; vehicle (DMSO) or 10 µM rapamycin for 15-60 min; nine fields of view; ratio of the area of colocalisation with and without rapamycin, one-tailed t-test (p<0.02), and visual inspection

B1: YAR019C (protein, UniProt P27636 1-974)
chain: MNSMADTDRVNLTPIQRASEKSVQYHLKQVIGRGSYGVVYKAINKHTDQVVAIKEVVYENDEELNDIMAEISLLKNLNHNNIVKYHGFIRKSYELYILLEYCANGSLRRLISRSSTGLSENESKTYVTQTLLGLKYLHGEGVIHRDIKAANILLSADNTVKLADFGVSTIVNSSALTLAGTLNWMAPEILGNRGASTLSDIWSLGATVVEMLTKNPPYHNLTDANIYYAVENDTYYPPSSFSEPLKDFLSKCFVKNMYKRPTADQLLKHVWINSTENVKVDKLNKFKEDFTDADYHWDADFQEEKLNISPSKFSLAAAPAAWAENNQELDLMPPTESQLLSQLKSSSKPLTDLHVLFSVCSLENIADTIIECLSRTTVDKRLITAFGSIFVYDTQHNHSRLRLKFIAMGGIPLIIKFEHLAKEFVIDYPQTLIECGIMYPPNFASLKTPKYILELVYRFYDLTSTAFWCRWCFKHLDISLLLNNIHERRAQSILLKLSSYAPWSFEKILPSLIDSKLKKKILISPQITYVVFKSINYMITTNDDKIHKSAIPSSSSLPLSSSPTRNSPVNSVQSPSRSPVHSLMATRPSSPMRHKSISNFPHLTISSKSRLLIELPEGFFTWLTSFFVDMAQIKDLSVLKYFTKLCYLTVHINSTFLNDLLDNDAFFAFIRNIDTIIPFIDDAKTAAFIWKQITAICVEMSLDMDQMSASLFSTAMNFIRKKNNTSISGLEIILNCLHFTLRNVNDDVAPTVGSSESHSVFLIKVNNDAAIELPIDQLVDLFYALNDDDVNLSKLISIFTKICSLPGFENLTINIIFHPNFYEKIVSFFDTYFNSLLIQIDLLKFIKLIFSKSLLKLYDYTGQPDPIKQTEPNRRNKATVFKLRAILVQITEFLNNNWNKDVPKRNSNQVGGDSVLICQLCEDIRSLSKKGSLQKVSSVTAAIGSSPTKDERSNLRSSKDKSDGFSVPITTFQT
binding: no binding

B2: YLR096W (protein, UniProt P13186 1-1147)
chain: MPNPNTADYLVNPNFRTSKGGSLSPTPEAFNDTRVAAPATLRMMGKQSGPRNDQQQAPLMPPADIKQGKEQAAQRQNDASRPNGAVELRQFHRRSLGDWEFLETVGAGSMGKVKLVKHRQTKEICVIKIVNRASKAYLHKQHSLPSPKNESEILERQKRLEKEIARDKRTVREASLGQILYHPHICRLFEMCTMSNHFYMLFEYVSGGQLLDYIIQHGSLKEHHARKFARGIASALQYLHANNIVHRDLKIENIMISSSGEIKIIDFGLSNIFDYRKQLHTFCGSLYFAAPELLKAQPYTGPEVDIWSFGIVLYVLVCGKVPFDDENSSILHEKIKKGKVDYPSHLSIEVISLLTRMIVVDPLRRATLKNVVEHPWMNRGYDFKAPSYVPNRVPLTPEMIDSQVLKEMYRLEFIDDIEDTRRSLIRLVTEKEYIQLSQEYWDKLSNAKGLSSSLNNNYLNSTAQQTLIQNHITSNPSQSGYNEPDSNFEDPTLAYHPLLSIYHLVSEMVARKLAKLQRRQALALQAQAQQRQQQQQVALGTKVALNNNSPDIMTKMRSPQKEVVPNPGIFQVPAIGTSGTSNNTNTSNKPPLHVMVPPKLTIPEQAHTSPTSRKSSDIHTELNGVLKSTPVPVSGEYQQRSASPVVGEHQEKNTIGGIFRRISQSGQSQHPTRQQEPLPEREPPTYMSKSNEISIKVPKSHSRTISDYIPSARRYPSYVPNSVDVKQKPAKNTTIAPPIRSVSQKQNSDLPALPQNAELIVQKQRQKLLQENLDKLQINDNDNNNVNAVVDGINNDNSDHYLSVPKGRKLHPSARAKSVGHARRESLKFTRPPIPAALPPSDMTNDNGFLGEANKERYNPVSSNFSTVPEDSTTYSNDTNNRLTSVYSQELTEKQILEEASKAPPGSMPSIDYPKSMFLKGFFSVQTTSSKPLPIVRHNIISVLTRMNIDFKEVKGGFICVQQRPSIETAAVPVITTTGVGLDSGKAMDLQNSLDSQLSSSYHSTASSASRNSSIKRQGSYKRGQNNIPLTPLATNTHQRNSSIPMSPNYGNQSNGTSGELSSMSLDYVQQQDDILTTSRAQNINNVNGQTEQTNTSGIKERPPIKFEIHIVKVRIVGLAGVHFKKVSGNTWLYKELASYILKELNL
binding: no binding

B3: YLL010C (protein, UniProt Q07800 1-427)
chain: MGFISSILCCSSETTQSNSNSAYRQQQSSSLNKNRSVKHSNTKSRTRGVHQTNSPPSKTNSAATFSSTERSTGKSGISTNDNEKKKPSSPTAAVTATTTNNMTKVEKRISKDDLYEEKYEVDEDEEIDDEDNRRSRGIVQEKGDAVKDTSRQKKQQQQQQQQSQPQPQPQSQSQSQSQSQSQQRGPTVQVSSDHLIQDMNLSRVSSSSQASETSNDADDEDDEDEEYIDLTLLQQGQYHAPGYNTLLPPQDESTKGKKCLILDLDETLVHSSFKYLRSADFVLSVEIDDQVHNVYVIKRPGVEEFLERVGKLFEVVVFTASVSRYGDPLLDILDTDKVIHHRLFREACYNYEGNYIKNLSQIGRPLSDIIILDNSPASYIFHPQHAIPISSWFSDTHDNELLDIIPLLEDLSVKTSLDVGKILDVTI
binding: no binding

B4: YKL079W (protein, UniProt P32364 1-656)
chain: MHWNIISKEQSSSSVSLPTLDSSEPCHIEVILRAIPEKGLQNNESTFKIDPYENTVLFRTNNPLHETTKETHSTFQFDKVFDANATQEDVQKFLVHPIINDVLNGYNGTVITYGPSFSGKSYSLIGSKESEGILPNICKTLFDTLEKNEETKGDSFSVSVLAFEIYMEKTYDLLVPLPERKPLKLHRSSSKMDLEIKDICPAHVGSYEDLRSYIQAVQNVGNRMACGDKTERSRSHLVFQLHVEQRNRKDDILKNSSLYLVDLHGAEKFDKRTESTLSQDALKKLNQSIEALKNTVRSLSMKERDSAYSAKGSHSSAYRESQLTEVLKDSLGGNRKTKVILTCFLSNVPTTLSTLEFGDSIRQINNKVTDNTTGLNLKKKMDLFIQDMKIKDDNYVAQINILKAEIDSLKSLHNKSLPEDDEKKMLENTKKENIKLKLQLDSITQLLSSSTNEDPNNRIDEEVSEILTKRCEQIAQLELSFDRQMNSNSKLQQELEYKKSKEEALESMNVRLLEQIQLQEREIQELLTTNAILKGELETHTKLTETRSERIKSLESSVKELSLNKSAIPSPRRGSMSSSSGNTMLHIEEGSEISNSPWSANTSSKPLVWGARKVSSSSIATTGSQESFVARPFKKGLNLHSIKVTSSTPKSPSSGS
binding: no binding

B5: YOR008C (protein, UniProt P54867 22-378)
chain: YEYVNCFSSLPSDFSKADSYNWQSSSHCNSECSAKGASYFALYNHSECYCGDTNPSGSESTSSSCNTYCFGYSSEMCGGEDAYSVYQLDSDTNSNSISSSDSSTESTSASSSTTSSTTSSTTSTTSSTTSSTTSSMASSSTVQNSPESTQAAASISTSQSSSTVTSESSLTSDTLATSSTSSQSQDATSIIYSTTFHTEGGSTIFVTNTITASAQNSGSATGTAGSDSTSGSKTHKKKANVGAIVGGVVGGVVGAVAIALCILLIVRHINMKREQDRMEKEYQEAIKPVEYPDKLYASSFSSNHGPSSGSFEEEHTKGQTDINPFDDSRRISNGTFINGGPGGKNNVLTVVNPDEAD
binding: no binding
